The record followed here is PMC4141763, “Reciprocal Activating Crosstalk between c-Met and Caveolin 1 Promotes Invasive Phenotype in Hepatocellular Carcinoma” (PLoS ONE, 2014).

The chains behind the UniProt entries cited, without tags or fusion partners. Residues count along the entry.
UniProt P08581, residues 25-1390: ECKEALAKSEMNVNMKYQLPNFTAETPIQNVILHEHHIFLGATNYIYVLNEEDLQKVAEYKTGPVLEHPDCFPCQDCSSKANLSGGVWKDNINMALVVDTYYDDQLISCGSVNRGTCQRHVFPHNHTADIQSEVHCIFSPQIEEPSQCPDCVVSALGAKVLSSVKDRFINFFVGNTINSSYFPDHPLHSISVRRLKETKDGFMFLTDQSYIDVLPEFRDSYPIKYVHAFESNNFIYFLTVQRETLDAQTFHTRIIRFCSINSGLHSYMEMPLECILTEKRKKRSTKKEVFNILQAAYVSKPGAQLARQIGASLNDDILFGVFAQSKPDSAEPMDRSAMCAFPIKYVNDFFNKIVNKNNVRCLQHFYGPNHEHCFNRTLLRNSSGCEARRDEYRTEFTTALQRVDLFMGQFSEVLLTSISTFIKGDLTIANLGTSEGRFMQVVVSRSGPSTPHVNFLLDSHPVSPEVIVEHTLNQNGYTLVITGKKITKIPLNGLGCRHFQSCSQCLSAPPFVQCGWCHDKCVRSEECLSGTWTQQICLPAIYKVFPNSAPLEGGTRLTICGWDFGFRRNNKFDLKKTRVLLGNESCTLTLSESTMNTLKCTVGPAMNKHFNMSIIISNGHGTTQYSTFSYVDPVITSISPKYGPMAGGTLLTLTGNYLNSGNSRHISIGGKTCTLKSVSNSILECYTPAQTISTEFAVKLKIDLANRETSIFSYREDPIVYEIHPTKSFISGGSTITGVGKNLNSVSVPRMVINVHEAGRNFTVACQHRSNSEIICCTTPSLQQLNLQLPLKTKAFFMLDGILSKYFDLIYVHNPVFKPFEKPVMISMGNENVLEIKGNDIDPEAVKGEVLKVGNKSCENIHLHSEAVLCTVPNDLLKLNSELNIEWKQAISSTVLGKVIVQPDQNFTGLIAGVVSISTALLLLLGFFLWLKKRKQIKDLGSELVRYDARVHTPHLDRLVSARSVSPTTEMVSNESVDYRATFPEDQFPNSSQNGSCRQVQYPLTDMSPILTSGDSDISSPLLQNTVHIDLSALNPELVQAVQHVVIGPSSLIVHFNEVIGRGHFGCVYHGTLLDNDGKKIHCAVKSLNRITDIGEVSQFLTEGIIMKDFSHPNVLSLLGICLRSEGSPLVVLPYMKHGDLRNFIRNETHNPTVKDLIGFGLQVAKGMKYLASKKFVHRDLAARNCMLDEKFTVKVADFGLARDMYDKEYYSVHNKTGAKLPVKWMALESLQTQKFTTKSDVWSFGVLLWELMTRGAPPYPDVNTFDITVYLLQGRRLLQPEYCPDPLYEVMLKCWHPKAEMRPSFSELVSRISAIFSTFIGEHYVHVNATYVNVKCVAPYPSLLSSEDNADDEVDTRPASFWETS

These are yes or no findings as the source states them, for the method shown. In cells and extracts the contact can be indirect. Some binding calls cover weakened binding; strength is not graded here.

Experiment [1] has as its target c-Met, the receptor for Hepatocyte Growth Factor (HGF) (human (endogenous in SNU-449 and Mahlavu)) (UniProt P08581). The experiment in a line: co-IP; Mahlavu whole cell lysates precipitated with anti-c-Met antibody, blotted for CAV1 and c-Met; serum-starved cells untreated or exposed to HGF for 15, 30 and 60 min; IgG as IP control.
For experiment [2] the target is unchanged. The experiment in a line: co-IP; SNU-449 whole cell lysates (modified NP-40 buffer) precipitated with agarose-conjugated anti-c-Met antibody (sc-161 AC), blotted for CAV1 and c-Met; serum-starved cells untreated or exposed to HGF (40 ng/mL) for 15, 30 and 60 min; IgG as IP control.

B1: Caveolin 1 (CAV1) (natural protein, UniProt Q03135 1-178, looked up)
chain: MSGGKYVDSEGHLYTVPIREQGNIYKPNNKAMADELSEKQVYDAHTKEIDLVNRDPKHLNDDVVKIDFEDVIAEPEGTHSFDGIWKASFTTFTVTKYWFYRLLSALFGIPMALIWGIYFAILSFLHIWAVVPCIKSFLIEIQCISRVYSIYVHTVCDPLFEAVGKIFSNVRINLQKEI
notes: detected by Western blot with an antibody to CAV1; Endogenous protein; the co-IP blot detects total CAV1; source: endogenous, Mahlavu whole cell lysate
As to B1, the binding result in experiment [1] and in experiment [2] was “binds” each time.
